Laboratory results from PubChem BioAssay AID485314 (National Center for Advancing Translational Sciences (NCATS), 2010).
In all, about 340,000 compounds went through this assay and about 4,500 (1.3%) were called active. Inconclusive means that the source gave no clear call. Such entries were picked first, then a sample of the others. Calls come from the whole dose curve; as a rule, active = well fitted inhibition curve with a large enough effect; inconclusive = small, poorly fitted or top-dose-only effect, or another doubt; inactive = no such curve, though single readings can be large or run the other way. Potencies of inconclusive entries are doubtful fits and often do not repeat.

Target: DNA polymerase beta (Homo sapiens) (UniProt P06746)
Experiment: qHTS Assay for Inhibitors of DNA Polymerase Beta
Details: Pol beta primer extension/strand displacement, fluorescence kinetic; activity change, negative = inhibition: at 114 µM (top of the series)
Method in brief: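 Curves were derived by four-parameter Hill fits of normalized qHTS data. The kinetic fluorescent primer-extension read was taken at 0 and 10 min after 50 nM substrate, following a 15 min room-temperature preincubation of 10 nM enzyme with compounds.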
% is set by controls: 0 for no effect and ±100 for the full control effect; potency is the fitted concentration of half-maximal effect.

Activity change, negative = inhibition, inconclusive:
Cc1ccc(C(=O)O)cc1-c1ccc(/C=C2\SC(=O)N(CC(=O)Nc3ccc4c(c3)OCO4)C2=O)o1 -48% [inhibitor], N#CCC(=O)Nc1ccc(C(=O)NCc2cccc(Cl)c2)cc1 -31.2% [inhibitor]

Potency, inconclusive:
CC(=O)Nc1ccc2nc(NC(=O)c3ccc([N+](=O)[O-])s3)sc2c1 79.4 µM [inhibitor, single point], Cc1ccc(CNC(=O)c2cc(=O)c3ccc(C)cc3o2)cc1 7.08 µM [inhibitor, full curve], COCCSc1nnc(NC(=O)CCS(=O)(=O)Cc2ccccc2)s1 89.1 µM [inhibitor, single point], O=C(NCc1ccccc1)c1ccc2c(c1)N(Cc1cccc(Cl)c1)C(=O)c1ccccc1S2(=O)=O 89.1 µM [inhibitor, single point], Nc1nnc(CCCCCCCCCCc2nnc(N)s2)s1 25.1 µM [inhibitor, full curve], Cc1ccccc1CN1C(=O)c2ccccc2Sc2ccc(C(=O)OCc3ccco3)cc21 89.1 µM [inhibitor, single point], CCc1ccc(NC(=O)CSc2ccc(-c3ccco3)nn2)cc1 8.91 µM [inhibitor, partial curve], Cc1ccc2c(C)c(C(=O)N(Cc3ccc(N(C)C)cc3)C3CCS(=O)(=O)C3)oc2c1 (configuration not stated) 44.7 µM [inhibitor, partial curve], Cc1oc(-c2ccc(C(=O)NCCc3ccc(Cl)cc3)cc2)nc1CSc1ccccc1 89.1 µM [inhibitor, single point], COc1cc(NC(=O)c2cccc(Cl)c2)ccc1NC(=O)c1cccs1 89.1 µM [inhibitor, single point], COc1ccc(-c2cc(=O)oc3c(C)c(OCC(=O)NCC4CCC(C(=O)O)CC4)ccc23)cc1 (configuration not stated) 50.1 µM [inhibitor, partial curve], Cn1c(=O)c(=O)n(C)c2cc(S(=O)(=O)CCC(=O)Nc3cccc(C(F)(F)F)c3)ccc21 14.1 µM [inhibitor, partial curve], O=C(/C(=C/O)N=Nc1ccc(Cl)cc1)c1ccncc1 50.1 µM [inhibitor, partial curve], O=c1cc(C(F)(F)F)[nH]c2c(C(F)(F)F)cccc12 89.1 µM [inhibitor, single point], O=C(COCc1cc(-c2ccco2)on1)Nc1cccc(O)c1 2.82 µM [inhibitor, full curve, poor fit], O=C1NC(=S)N(C(=O)c2ccc(F)cc2)/C1=C/c1cccnc1 79.4 µM [inhibitor, single point], O=c1cc(C(F)(F)F)nc(-n2[nH]c3c(c2=O)CCCC3)[nH]1 2.82 µM [inhibitor, full curve, poor fit], COc1ccc(CNC(=O)CNC(C)c2ccc(F)cc2)cc1 (configuration not stated) 39.8 µM [inhibitor, single point], CCOc1ccc(CCNC(=O)c2cccc(N3CCCC3=O)c2)cc1OCC 89.1 µM [inhibitor, single point], C=CCNC(=O)CC1C(=O)NCCN1Cc1c(F)cccc1Cl (configuration not stated) 39.8 µM [inhibitor, single point], Cc1ccc(NC(=O)CCC(=O)NNC(=O)COc2ccccc2)c(C)c1 22.4 µM [inhibitor, partial curve], O=C(c1ccco1)N(Cc1cccc([N+](=O)[O-])c1)c1ccc(Br)cc1 89.1 µM [inhibitor, single point], O=c1cc(COc2ccccc2[N+](=O)[O-])nc2sccn12 44.7 µM [inhibitor, partial curve], O=C(c1cc(-c2ccncc2)nc2ccc(Cl)cc12)N1CCN(C(=O)C2CCCO2)CC1 (configuration not stated) 100 µM [inhibitor, single point], O=C(CSc1nnc(CNc2ccc(F)cc2)n1Cc1ccccc1)NCc1ccco1 7.94 µM [inhibitor, full curve], COc1ccc(S(=O)(=O)NC(C)CCc2ccccc2)cc1 (configuration not stated) 89.1 µM [inhibitor, single point], COc1ccccc1NC(=O)C1=C(C)Nc2nc(SCc3ccc(Cl)cc3)nn2C1c1ccccc1Cl (configuration not stated) 89.1 µM [inhibitor, single point], CCOC(=O)N1CCN(c2cc3[nH]c(=S)[nH]c3cc2F)CC1 1.78 µM [inhibitor, full curve, poor fit], C(=N\Nc1ccccn1)/c1ccc2c(c1)OCCO2 89.1 µM [inhibitor, single point], Cc1nn(C)c(C(=O)Nc2cccc(Nc3ccccc3)c2)c1[N+](=O)[O-] 50.1 µM [inhibitor, partial curve, poor fit]

Potency, active:
CCC(C)C(=O)OCC1(c2ccc(C)cc2OC(=O)C(C)C)CO1 (configuration not stated) 39.8 µM, CC(=O)N1CCc2cc(CNC(=O)Nc3cc(Cl)ccc3C)ccc21 28.2 µM

Potency, inactive:
CC1=NN(c2ccc(C)c(C)c2)C(=O)/C1=C/c1ccc2c(c1)n(C)c(=O)n2C, CCn1ccc2cc(S(=O)(=O)N3CCC(C(=O)NCc4ccc(OC)cc4)CC3)ccc21, c1ccc(Nc2cccc3c(Nc4ccccc4)cccc23)cc1, CCOC(=O)CNC(=O)c1ccc(-c2nn(C)c(=O)c3ccccc23)cc1, COCCNC(=S)NC(=O)c1ccc(C(C)(C)C)cc1, COc1ccc2cc(C#N)c(SCC(=O)N3CCCC3)nc2c1, COc1cc(SSc2cc(OC)cc([N+](=O)[O-])c2N)c(N)c([N+](=O)[O-])c1, COc1ccc(Cn2c(CCC(=O)Nc3cccc(OC)c3)nc3cccnc32)cc1
